In PMC3828397, “Characterization of PfTrxR inhibitors using antimalarial assays and in silico techniques” (Chemistry Central Journal, 2013):

Columns and labels:
[1] = tested on: P. falciparum chloroquine resistant (W2, IndoChina) strain; test: In vitro antimalarial assay (SYBR green), W2 strain; type: cell-based, Plasmodium falciparum; conditions: Selectivity index
[2] = tested on: P. falciparum chloroquine sensitive (D6, Sierra Leone) strain; test: In vitro antimalarial assay (SYBR green), D6 strain; type: cell-based, Plasmodium falciparum; conditions: Selectivity index

Row | SMILES | SI W2 [1] | SI D6 [2]
1 | CN(C)CCC(=O)c1ccccc1 [3-DAP, 3-dimethylaminopropiophenone] | >1 | >1
2 | O=C1C=CC(=O)c2ccccc21 [1,4-NQ, 1,4-napthoquinone] | 2.4 | 

The index is printed as in the source, without its formula.
